Results reported in publication PMC9192210.
Results are given in words; binding and its absence hold for the method and conditions named. Binding seen in cells or lysates may run through a third protein. Some entries that bind do so weakly or less than the wild type.

By UniProt entry, the sequences of proteins in these tests, tags left out. Residues count along the entry.
UniProt P63165, residues 1-97: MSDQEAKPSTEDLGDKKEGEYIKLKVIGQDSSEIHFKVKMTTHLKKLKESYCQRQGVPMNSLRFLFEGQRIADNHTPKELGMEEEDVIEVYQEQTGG
UniProt P63166, residues 1-97: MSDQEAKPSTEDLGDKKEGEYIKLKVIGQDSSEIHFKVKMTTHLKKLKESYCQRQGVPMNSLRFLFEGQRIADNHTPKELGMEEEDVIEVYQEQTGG
UniProt Q13485: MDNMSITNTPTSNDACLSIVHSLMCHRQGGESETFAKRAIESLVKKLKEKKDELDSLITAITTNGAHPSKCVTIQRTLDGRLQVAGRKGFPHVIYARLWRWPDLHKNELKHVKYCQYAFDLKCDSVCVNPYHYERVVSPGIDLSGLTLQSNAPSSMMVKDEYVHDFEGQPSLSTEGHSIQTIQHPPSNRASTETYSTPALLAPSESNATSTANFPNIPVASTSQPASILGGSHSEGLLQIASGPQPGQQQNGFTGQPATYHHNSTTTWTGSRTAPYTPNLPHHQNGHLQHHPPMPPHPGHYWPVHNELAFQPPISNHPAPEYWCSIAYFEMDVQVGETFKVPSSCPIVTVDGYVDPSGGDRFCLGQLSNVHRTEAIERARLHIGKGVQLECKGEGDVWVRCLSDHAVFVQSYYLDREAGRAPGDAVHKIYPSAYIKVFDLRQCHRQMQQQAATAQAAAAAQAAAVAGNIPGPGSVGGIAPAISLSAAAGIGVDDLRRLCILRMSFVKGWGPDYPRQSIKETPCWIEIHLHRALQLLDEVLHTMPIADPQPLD
UniProt P97471: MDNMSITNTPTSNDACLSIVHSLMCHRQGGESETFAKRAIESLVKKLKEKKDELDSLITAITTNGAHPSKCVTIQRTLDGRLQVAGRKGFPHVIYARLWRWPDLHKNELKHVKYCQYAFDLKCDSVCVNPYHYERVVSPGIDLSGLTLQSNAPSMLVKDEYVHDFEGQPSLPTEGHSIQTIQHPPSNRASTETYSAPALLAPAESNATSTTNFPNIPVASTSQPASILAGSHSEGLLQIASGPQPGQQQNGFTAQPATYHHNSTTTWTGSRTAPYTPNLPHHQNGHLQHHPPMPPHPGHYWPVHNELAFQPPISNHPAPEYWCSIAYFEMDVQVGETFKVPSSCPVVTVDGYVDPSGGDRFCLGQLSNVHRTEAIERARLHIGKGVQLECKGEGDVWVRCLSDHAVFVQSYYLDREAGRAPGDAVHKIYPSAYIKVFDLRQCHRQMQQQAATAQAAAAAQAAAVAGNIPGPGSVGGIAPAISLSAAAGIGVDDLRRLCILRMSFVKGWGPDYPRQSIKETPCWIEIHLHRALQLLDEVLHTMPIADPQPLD

Key:
[1] = biological target: HA-SUMO1 (UniProt P63165); assay: co-IP; A549 cells transfected with HA-SUMO1, FLAG-SMAD4 and with or without His-SENP1; western blot
[2] = biological target: SUMO1 (mouse (endogenous in lung tissue)) (UniProt P63166); assay: co-IP; lung tissue lysates of wild-type and SENP1-KO mice (control, BLM, BLM + GA, with TGF-β1); anti-SUMO1, anti-SMAD4 or IgG crosslinked to protein A/G magnetic beads, overnight at 4 °C; western blot

| Substance | binding [1] | binding [2] |
| --- | --- | --- |
| FLAG-SMAD4 (from UniProt Q13485 1-552) | binds |  |
| SMAD4 (from UniProt P97471 1-551) |  | binds |
